{"source": "patent US20140315869A1", "about": "“THERAPEUTIC USES OF ECTOINE” (BITOP AG, priority 2011, published 2014)", "assay_type_in_all_cases": "cell-based", "key": {"human neutrophils": {"test_system": "human neutrophils", "assay": "Apoptosis rate of isolated human neutrophil granulocytes (sub-G1 cells, propidium iodide, flow cytometry)", "details": "Experiment 5; 1 μM budesonide, 16 h", "method": "The effect of ectoine on the apoptosis was investigated by way of human neutrophils. Neutrophils from young, healthy donors (3 male and 2 female) were isolated and treated with the amounts of ectoine (mM) indicated. Treatment was carried out with ectoine alone (open columns) and with 33 μg/ml of CNP (black columns). Ectoine was not administered in the control group (C).\nThe apoptotic cells were quantified in the following manner: The neutrophils were suspended in 300 μl of hypotonic solution containing propidium iodide (PI). The fluorescence of PI was determined by means of flow cytometry (FACScan cytometer, BD Biosciences). […]\nThe effect of ectoine on the apoptosis was investigated by way of human neutrophils. […] (†: significant difference with respect to control group; *: significant difference with respect to neutrophils treated with proinflammatory factors and PBS only; quantification of the apoptotic cells analogous to Experiment 2).\nThe neutrophil granulocytes were pretreated for 2 hours with 1 mM of ectoine resp. […] (dark columns: pretreatment with ectoine; light columns: pretreatment with PBS; *: significant difference with respect to control group without CNP or inflammation mediators; §: significant difference with respect to the treatment without ectoine; quantification of the apoptotic cells analogously to Experiment 2). […]"}, "protein kinase B (Akt)": {"test_system": "protein kinase B (Akt)", "assay": "Akt phosphorylation in human primary peripheral neutrophils (western blot)", "details": "Experiment 6; 1 μM budesonide, 6 h; COPD patients and age control group", "method": "(§1) The influence of ectoine in combination with budenoside on anti-apoptotic signals can be seen from FIG. 6. With selected samples of neutrophils relevant signals were detected via protein kinase B (Akt) and Mcl-1 by measurement of the Akt phosphorylation and the Mcl-1 protein level, with human primary peripheral neutrophils being used as cells. Isolation of the neutrophils by Percoll® centrifugation, the cultivation of 2×10^6 neutrophils in the presence of 33 μg/ml CNP, 1 μM budesonide, 1 mM ectoine and combinations thereof for 6 h. A protein isolation, western blot, luminescence on x-ray films was effected of material from each 3 COPD patients and 3 persons from the corresponding age control group."}, "Mcl-1": {"test_system": "Mcl-1", "assay": "Mcl-1 protein level in human primary peripheral neutrophils (western blot)", "details": "Experiment 6; 1 μM budesonide, 6 h; COPD patients and age control group", "method": "as §1"}}, "note": "At least one compound was matched to its structure with a doubt left.", "data": [{"smiles": "CCCC1O[C@@H]2C[C@H]3[C@@H]4CCC5=CC(=O)C=C[C@]5(C)[C@H]4[C@@H](O)C[C@]3(C)[C@]2(C(=O)CO)O1", "note": "(stereo partly drawn) [budesonide, reference compound]", "values": [{"measurement": "apoptosis rate of neutrophils, budesonide treatment", "setting": "human neutrophils", "value": "leads to a decrease of the apoptosis rate of neutrophils"}, {"measurement": "Akt phosphorylation, budesonide", "setting": "protein kinase B (Akt)", "value": "activates the Akt signaling pathway"}, {"measurement": "Mcl-1 protein level, budesonide", "setting": "Mcl-1", "value": "increases the amount of anti-apoptotic protein Mcl-1"}]}]}
